The source of these data is US8093393B2, “Cationic ceramides, and analogs thereof, and their use for preventing or treating cancer” (MUSC Foundation for Research Development, priority 2004, dated 2012).

Each structure is given as a SMILES string.

One data set has as its system UM-SCC-22A xenografts. The following applies: SCID mice, n=6.
The next data set concerns UM-SCC-22A cells. Put plainly: MTT cell survival assay and isobologram studies. It counts as cell-based, human. The note with it: 1 μM with various concentrations of GMZ, 48 hr. A general note: Tetrazolium assays rely on reduction of a dye to a coloured formazan, in cell work by metabolically active cells.

In the case of `CCCCCCCCCCCCCCCC[n+]1ccccc1` [cetylpyridinium bromide, Cetylpyridinium bromide (CPB) monohydrate, reference compound], the “lethality / toxicity to xenograft-bearing mice” value in the data set on UM-SCC-22A xenografts is reported as “lethal to all animals tested”. Besides, the “effect on the growth inhibition by GMZ” value in the data set with UM-SCC-22A cells is given as “did not have any role on the efficacy of GMZ”.
